The structures given here were assigned with low confidence; some may be wrong.
Assays:
BTK = BTK (Homo sapiens, UniProt Q06187); assay: BTK degradation activity test in Mino cells (Westernblot or Elisa); type: cell-based; details: 24-72 h incubation
Method: The Mino cell line cells are 0.5˜1 million/well in 6-well plates. The compounds are diluted to different concentrations, added to the plate, and after 24-72 h of incubation, the cells are collected. After the cells were lysed, the total protein concentration in each well was determined with a BCA kit. The amount of BTK is determined using the Westernblot or Elisa method.

Sequences of proteins named here, by UniProt entry; tags and fusion partners are left off.
UniProt Q06187, whole entry: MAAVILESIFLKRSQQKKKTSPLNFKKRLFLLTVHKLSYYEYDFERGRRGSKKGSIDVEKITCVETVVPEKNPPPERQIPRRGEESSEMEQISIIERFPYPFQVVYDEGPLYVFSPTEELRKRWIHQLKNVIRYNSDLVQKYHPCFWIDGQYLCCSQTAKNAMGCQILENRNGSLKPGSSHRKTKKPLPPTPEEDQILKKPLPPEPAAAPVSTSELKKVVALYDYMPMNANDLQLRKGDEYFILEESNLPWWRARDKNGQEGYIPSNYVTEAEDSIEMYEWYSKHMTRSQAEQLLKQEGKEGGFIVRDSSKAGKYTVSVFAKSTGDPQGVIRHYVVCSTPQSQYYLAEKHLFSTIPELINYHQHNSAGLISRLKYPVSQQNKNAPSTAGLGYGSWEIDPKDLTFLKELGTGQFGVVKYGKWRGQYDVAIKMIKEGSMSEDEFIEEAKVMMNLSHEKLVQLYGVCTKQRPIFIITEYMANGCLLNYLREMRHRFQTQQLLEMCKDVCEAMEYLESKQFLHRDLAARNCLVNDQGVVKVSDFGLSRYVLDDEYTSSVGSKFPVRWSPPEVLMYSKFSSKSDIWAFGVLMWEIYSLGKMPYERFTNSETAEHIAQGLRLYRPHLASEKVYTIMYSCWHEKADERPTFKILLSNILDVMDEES

OCI-LY10 cells = assay: Inhibitory activity on OCI-LY10 cell proliferation (MTS); details: read-out: OCI-ly10 IC50, 72 h or 168 h
Method: The anti-tumor efficacy of the compounds was tested by measuring their inhibitory effects on OCI-LY10 and Mino cell proliferation. OCI-LY10 and Mino cells were cultured in RPM-1640 medium containing […] fetal calf serum. OCI-LY10 and Mino cells were digested, inoculated in a 96-well plate at a cell concentration of 10000 cells/well, and incubated overnight at 37° C., 5% CO2. Compounds of different concentrations (1000 nM, 4-fold dilution, 8 points) were added to the 96-well plate and incubated for 72 h or 168 h at 37° C. and […], and then 20 μL of MTS was added to each well. After incubation for 2 h, 25 μl of 10% SDS was added to each well to terminate the reaction. The absorbance at 490 nm and 650 nm were measured with a microplate reader. IC50 was calculated using GraphPad Prism 5.0.

| IC50 (OCI-LY10 cells) [µM] | Compound | DC50 (BTK) [µM] |
| --- | --- | --- |
|  | NC(=O)c1cnc(N2CCCCC2)nc1Nc1ccc(N2CCC(CN3CCN(c4ccc5c(c4)C(=O)N(C4CCC(=O)NC4=O)C5=O)CC3)CC2)c(F)c1 (centres unmarked) | < 0.01 |
| 0.00139 | NC(=O)c1nnc(N2CCCCC2)nc1Nc1ccc(N2CCC(CN3CCN(c4ccc(C5CCC(=O)NC5=O)cc4)CC3)CC2)c(F)c1 (centres unmarked) | < 0.01 |
|  | NC(=O)c1nnc(N2CCCCC2)nc1Nc1ccc(C2CCN(C(=O)C3CN(c4ccc5c(c4)C(=O)N(C4CCC(=O)NC4=O)C5=O)C3)CC2)cc1 (centres unmarked) | < 0.01 |
|  | CC(C)(C)C(=O)OCN1C(=O)CCC(N2C(=O)c3ccc(N4CCC(CN5CCC(c6ccc(Nc7nc(N8CCCCC8)ncc7C(N)=O)cc6)CC5)C4)cc3C2=O)C1=O (centres unmarked) | < 0.01 |

— patent US20260167620A1, “MULTIFUNCTIONAL COMPOUND CAPABLE OF DEGRADING BTK KINASE, AND COMPOSITION AND USE” (HANGZHOU HEALZEN THERAPEUTICS CO., LTD., priority 2021, published 2026)
